# Laboratory results published in PubChem BioAssay (EPA / NIEHS).
# The chains behind the UniProt entries cited, without tags or fusion partners. Where a name states a change or a piece, a line headed by the entry shows the natural chain unless it says otherwise.
# UniProt O75469: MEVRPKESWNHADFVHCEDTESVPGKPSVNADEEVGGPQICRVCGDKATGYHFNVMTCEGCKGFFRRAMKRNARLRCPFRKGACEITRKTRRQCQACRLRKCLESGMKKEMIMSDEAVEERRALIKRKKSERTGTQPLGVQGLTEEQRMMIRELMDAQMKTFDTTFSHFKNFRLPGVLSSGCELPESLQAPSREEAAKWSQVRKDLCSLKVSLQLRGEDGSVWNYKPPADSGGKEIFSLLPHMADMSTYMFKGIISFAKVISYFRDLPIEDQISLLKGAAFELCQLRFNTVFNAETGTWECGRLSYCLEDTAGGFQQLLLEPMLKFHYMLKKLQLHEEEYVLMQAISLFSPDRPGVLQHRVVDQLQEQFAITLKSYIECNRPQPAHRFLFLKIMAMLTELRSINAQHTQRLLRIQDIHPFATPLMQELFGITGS
# UniProt P19793: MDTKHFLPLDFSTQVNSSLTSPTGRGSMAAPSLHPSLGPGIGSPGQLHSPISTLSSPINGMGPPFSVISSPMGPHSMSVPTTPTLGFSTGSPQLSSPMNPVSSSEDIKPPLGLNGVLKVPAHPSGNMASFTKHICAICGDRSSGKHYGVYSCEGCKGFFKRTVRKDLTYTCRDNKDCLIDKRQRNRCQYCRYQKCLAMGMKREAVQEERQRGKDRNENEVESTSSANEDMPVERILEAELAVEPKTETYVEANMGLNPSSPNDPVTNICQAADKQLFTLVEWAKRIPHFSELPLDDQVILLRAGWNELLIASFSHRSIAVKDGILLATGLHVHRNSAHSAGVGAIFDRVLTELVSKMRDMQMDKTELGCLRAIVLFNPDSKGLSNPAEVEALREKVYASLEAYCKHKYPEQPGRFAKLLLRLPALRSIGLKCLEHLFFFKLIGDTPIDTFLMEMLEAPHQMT
# UniProt P13631, whole entry, looked up: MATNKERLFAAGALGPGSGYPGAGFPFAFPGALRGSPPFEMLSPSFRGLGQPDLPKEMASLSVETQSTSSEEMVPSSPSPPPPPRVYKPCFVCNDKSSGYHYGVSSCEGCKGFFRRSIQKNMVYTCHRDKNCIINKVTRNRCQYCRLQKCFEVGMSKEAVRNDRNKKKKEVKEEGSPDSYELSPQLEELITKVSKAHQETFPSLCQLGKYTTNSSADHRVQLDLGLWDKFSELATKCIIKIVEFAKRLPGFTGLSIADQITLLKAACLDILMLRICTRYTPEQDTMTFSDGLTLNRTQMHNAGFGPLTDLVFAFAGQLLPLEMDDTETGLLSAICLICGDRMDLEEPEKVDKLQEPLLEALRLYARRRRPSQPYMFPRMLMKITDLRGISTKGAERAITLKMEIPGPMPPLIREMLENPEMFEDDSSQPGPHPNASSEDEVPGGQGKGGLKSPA
# UniProt Q96RI1: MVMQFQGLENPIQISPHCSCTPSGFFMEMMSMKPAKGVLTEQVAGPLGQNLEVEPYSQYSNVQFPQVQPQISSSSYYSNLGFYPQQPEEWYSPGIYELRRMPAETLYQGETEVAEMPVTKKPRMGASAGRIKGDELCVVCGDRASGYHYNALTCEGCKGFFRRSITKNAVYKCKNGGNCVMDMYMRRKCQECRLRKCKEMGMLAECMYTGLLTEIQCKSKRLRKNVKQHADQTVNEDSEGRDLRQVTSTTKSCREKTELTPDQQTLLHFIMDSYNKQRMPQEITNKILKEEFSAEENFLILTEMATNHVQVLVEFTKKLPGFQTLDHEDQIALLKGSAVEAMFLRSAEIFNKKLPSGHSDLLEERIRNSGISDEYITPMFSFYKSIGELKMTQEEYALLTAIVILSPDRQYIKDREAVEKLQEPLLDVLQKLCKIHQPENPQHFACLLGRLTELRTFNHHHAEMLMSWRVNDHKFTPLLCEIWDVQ
# UniProt P30542, whole entry, looked up: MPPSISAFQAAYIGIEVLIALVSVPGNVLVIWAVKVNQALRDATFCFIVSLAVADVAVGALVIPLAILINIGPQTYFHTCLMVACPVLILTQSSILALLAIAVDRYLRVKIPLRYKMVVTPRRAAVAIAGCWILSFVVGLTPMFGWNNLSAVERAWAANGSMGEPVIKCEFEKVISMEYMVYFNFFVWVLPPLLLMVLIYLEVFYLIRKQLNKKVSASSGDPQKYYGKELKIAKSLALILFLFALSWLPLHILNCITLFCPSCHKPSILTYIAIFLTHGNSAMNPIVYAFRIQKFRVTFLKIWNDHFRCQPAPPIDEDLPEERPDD
# For part of these data: Most of the hits are listed elsewhere, so they are rarer here than in the full data. Inconclusive results are not listed. The list shows a part of the results, in another mix than the full data. The source holds several records for some structures; these can differ, active in one and inactive in another. Activity calls are given as the source filed them. Rule for the calls, unless noted: active = hit-call score of the fitted dose curve at least 0.9, where 1 is the maximum; inconclusive = response in the unintended direction; inactive = score below 0.9.
# What was measured:
# [1] = target: Nuclear receptor subfamily 1 group I member 2 (Homo sapiens) (UniProt O75469); assay: ATG_PXR_TRANS: Attagene TRANS-FACTORIAL HepG2 Assay for human Pregnane X Receptor (PXR) (AID 2283008)
# Method in brief: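 Measures mRNA induction of a GAL4-UAS-driven reporter in human HepG2 cells transiently expressing PXR fused to Gal4, following 24 h treatment. DMSO served as negative control and baseline.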
# [2] = read-out: Interleukin-1 alpha (IL1a), IL1A (gene 3552); assay: BSK_BE3C_IL1a: BioMAP Diversity Plus: BE3C Assay for Interleukin-1 alpha (IL1a) Biomarker Activity (AID 2283016; active = hit-call score of the fitted dose curve at least 0.9, where 1 is the maximum; inactive = score below 0.9); conditions: actives raise or lower the signal; primary human bronchial epithelial cells
# Method in brief: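 Cultures of primary human bronchial epithelial cells receive test chemical. After 24 h, IL-1a is quantified by ELISA, while parallel wells are fixed in TCA and SRB-stained for total protein. Changes in either direction are fitted relative to DMSO.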
# [3] = read-out: Interleukin-8 (IL8), CXCL8 (gene 3576); assay: BSK_3C_IL8: BioMAP Diversity Plus: 3C Assay for Interleukin-8 (IL8) Biomarker Activity (AID 2283020; active = hit-call score of the fitted dose curve at least 0.9, where 1 is the maximum; inactive = score below 0.9); conditions: actives raise or lower the signal; primary human endothelial cells (HUVEC)
# Method in brief: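 Human vascular endothelial cells (umbilical vein) in the 3C system; IL-8 level detected by ELISA at 24 h post-dose, with DMSO as baseline.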
# [4] = read-out: Thrombomodulin, THBD (gene 7056); assay: BSK_CASM3C_Thrombomodulin: BioMAP Diversity Plus: CASM3C Assay for Thrombomodulin Biomarker Activity (AID 2283051; active = hit-call score of the fitted dose curve at least 0.9, where 1 is the maximum; inactive = score below 0.9;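 note: thrombomodulin protein level measured by ELISA 24 h after dosing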); conditions: actives raise or lower the signal; primary human coronary artery smooth muscle cells
# [5] = CEETOX_H295R_OHPREG: CeeTox H295R High-throughput Steroidogenesis Assay for OH-Pregnenolone (OHPREG) (AID 2283434; active = hit-call score of the fitted dose curve at least 0.9, where 1 is the maximum; inactive = score below 0.9); conditions: actives raise or lower the signal
# [6] = read-out: ATP-citrate lyase (ACLY), ACLY (gene 47); assay: LTEA_HepaRG_ACLY: Life Technologies and Expression Analysis (LTEA) Assay for ATP-citrate lyase (ACLY) using HepaRG (AID 2283466; active = hit-call score of the fitted dose curve at least 0.9, where 1 is the maximum; inactive = score below 0.9); conditions: actives raise or lower the signal; mRNA level, 48 h
# Method in brief: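 Differentiated HepaRG cells exposed 48 h in serum-free induction medium to eight half-log concentrations up to 100 uM in 0.5% DMSO, duplicates. Transcript measured by Fluidigm TaqMan qRT-PCR, normalized to ACTB, GAPDH, POLR2A; bidirectional fit versus DMSO.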
# [7] = TOX21_p53_BLA_p2_viability: Viability Assessment in the Tox21 HCT-116 p53 Agonism Beta-lactamase Assay, Phase 2 (AID 2283591);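 note: compound exposure lasted 16 h at 37 °C; actives lower the ATP signal meaning cytotoxicity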
# Method in brief: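 HCT116 p53-bla cells, 4000/well, dosed after 5 h plating (217-fold dilution of DMSO stocks) and incubated 16 h at 37C. Viability taken as cellular ATP by CellTiter-Glo luminescence after 30 min RT; signal loss marks cytotoxicity.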
# [8] = target: Retinoic acid receptor RXR-alpha (Homo sapiens) (UniProt P19793); assay: ATG_RXRa_TRANS: Attagene TRANS-FACTORIAL HepG2 Assay for human Retinoid X Receptor alpha (RXRa) (AID 2283012)
# Method in brief: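 Cells (HepG2) carried transiently transfected GAL4-responsive reporter units. Following a 24 h chemical incubation, reporter mRNA induction was read via RT-PCR fragment analysis; DMSO served as negative control and baseline.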
# [9] = target: human Retinoic Acid Receptor gamma (RARg), RARG (gene 5916) (UniProt P13631); assay: ATG_RARg_TRANS: Attagene TRANS-FACTORIAL HepG2 Assay for human Retinoic Acid Receptor gamma (RARg) (AID 2283009)
# Method in brief: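 HepG2, RARg-GAL4 TRANS system, 24 h exposure; reporter mRNA by RT-PCR + CE fluorescence; increase over DMSO.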
# [10] = target: Bile acid receptor (Homo sapiens) (UniProt Q96RI1); assay: OT_FXR_FXRSRC1_1440: Odyssey Thera (OT) 24-hour HEK293T Protein-Complementation Assay for Farnesoid X receptor/SRC-1 Co-activator (AID 2283384)
# Method in brief: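 Cell-based binding reporter: interaction of FXR with SRC-1 brings reporter fragments together, giving a fluorescence signal read 24 h after dosing of HEK293T cells.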
# [11] = read-out: Matrix Metallopeptidase 1 (MMP1), MMP1 (gene 4312); assay: BSK_BE3C_MMP1: BioMAP Diversity Plus: BE3C Assay for Matrix Metallopeptidase 1 (MMP1) Biomarker Activity (AID 2283024; active = hit-call score of the fitted dose curve at least 0.9, where 1 is the maximum; inactive = score below 0.9); conditions: actives raise or lower the signal; primary human bronchial epithelial cells
# Method in brief: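 Dose cells, wait 24 h, run MMP1 ELISA; cells are human bronchial epithelial primaries. Both increases and decreases relative to DMSO counted.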
# [12] = target: human Adenosine A1 Receptor (AdoRA1), ADORA1 (gene 134) (UniProt P30542); assay: NVS_GPCR_hAdoRA1: NovaScreen (NVS) G Protein-Coupled Receptor Assay for human Adenosine A1 Receptor (AdoRA1) (AID 2283254)
# Method in brief: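 Radioligand competition binding on human cortical membranes, 1 h after compound addition; bound radioactivity read by filtration and scintillation counting. Loss of signal versus DMSO baseline scored as displacement; primary screen duplicate at 25 uM, actives retested in concentration series.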
# [13] = TOX21_p53_BLA_p5_viability: Viability Assessment in the Tox21 HCT-116 p53 Agonism Beta-lactamase Assay, Phase 5 (AID 2283600)
# Method in brief: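 Cells were plated at 4000/well, rested 5 h at 37C, then given compounds in DMSO (217-fold dilution) for 16 h at 37C, 5% CO2. Following the CCF4-AM beta-lactamase read, CellTiter-Glo was added and luminescence was read after 30 min at room temperature.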
# [14] = read-out: Urokinase-type plasminogen activator receptor (uPAR), PLAUR (gene 5329); assay: BSK_4H_uPAR: BioMAP Diversity Plus: 4H Assay for Urokinase-type plasminogen activator receptor (uPAR) Biomarker Activity (AID 2283030; active = hit-call score of the fitted dose curve at least 0.9, where 1 is the maximum; inactive = score below 0.9); conditions: actives raise or lower the signal; primary human endothelial cells (HUVEC)
# Method in brief: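 Primary human umbilical vein endothelial cells were exposed to chemical for 24 h before cell-surface uPAR was quantified by ELISA. Activity was fitted bidirectionally against the DMSO negative control baseline.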
# [15] = read-out: Interleukin-1 alpha (IL1a), IL1A (gene 3552); assay: BSK_LPS_IL1a: BioMAP Diversity Plus: LPS Assay for Interleukin-1 alpha (IL1a) Biomarker Activity (AID 2283080; active = hit-call score of the fitted dose curve at least 0.9, where 1 is the maximum; inactive = score below 0.9); conditions: actives raise or lower the signal; primary human HUVEC with PBMC
# Method in brief: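 Human umbilical vein endothelial cells co-cultured with peripheral blood mononuclear cells were LPS-stimulated and exposed to test chemicals for 24 h. IL-1 alpha was quantified by ELISA, with bidirectional curve fitting against DMSO as the negative control and baseline.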
# [16] = tested on: rat Norepinephrine Transporter (NET), gene 83511; assay: NVS_TR_rNET: NovaScreen (NVS) Transporter Assay for rat Norepinephrine Transporter (NET) (AID 2283373)
# [17] = Tanguay_ZF_120hpf_TR_legacy: (Legacy) Oregon State University Tanguay Lab 120 Hour Post-fertilization zebrafish Assay for Touch Response (AID 2283667)
# SRD5A2 (gene 6716) = assay: CCTE_Deisenroth_5AR_NBTE_ratio: CCTE's 5alpha-reductase NanoBRET Target Engagement Assay - Ratio, Deisenroth Lab (AID 2284322; active = hit-call score of the fitted dose curve at least 0.9, where 1 is the maximum; inactive = score below 0.9); conditions: actives raise or lower the signal
# Method in brief: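 Reverse-transfect HEK293T with pNLF1-C-SRD5A2, express 20 h. Pre-incubate cells with chemical 3 h (8-point series, 10 nM - 29.9 uM, duplicate). Add testosterone tracer, 2 h more. Add substrate/inhibitor, read donor and acceptor emission.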
structure (smiles),measurement,setting,value
O=c1c(-c2ccc(O)cc2)coc2cc(O)cc(O)c12,AC50,[1],active: 23.4 µM
same,outcome,[2],inactive
same,AC50,[3],active: 15.1 µM
same,outcome,[4],inactive
same,AC50,[5],active: 13.1 µM
same,outcome,[6],inactive
same,outcome,[7],inactive
CCCCCCCCCC(=O)O,outcome,[8],inactive
Oc1ccc(Cl)cc1Cc1cc(Cl)ccc1O,outcome,[9],inactive
same,AC50,[10],active: 11.8 µM
CN(C)c1ccc(C(=C2C=CC(=[N+](C)C)C=C2)c2ccccc2)cc1,AC50,[1],active: 1.46 µM
same,AC50,[11],active: 1.04 µM
same,AC50,[12],active: 19.3 µM
same,AC50,[13],active: 1.48 µM
Cc1oncc1C(=O)Nc1ccc(C(F)(F)F)cc1,outcome,[1],inactive
Nc1ccc(Nc2ccccc2)cc1,outcome,[9],inactive
same,AC50,[14],active: 1.79 µM
same,AC50,[15],active: 20 µM
same,AC50,[16],active: 16.3 µM
same,AC50,[17],active: 44.6 µM
same,AC50,SRD5A2 (gene 6716),active: 20.1 µM
